Experimental data published in the supplement of paper PMC7052299.
This is one part of the list. Most values come without repeats; read them as rough.

Tested on: Danio rerio embryo (th-expressing DA/NA neurons)
Test: percentage of embryos with altered th expression (decrease or increase vs DMSO control) in brain region; higher = more embryos with altered dopaminergic/noradrenergic marker expression; extreme values may be limits of the assay
Conditions: treatment window: 24-72 hpf, fixed 96 hpf
[1] = 1 µM, brain region: telencephalon
[2] = 3 µM, brain region: telencephalon
[3] = 10 µM, brain region: telencephalon
[4] = 30 µM, brain region: telencephalon

Measured: percentage of embryos with altered th expression

O=C(c1ccc(C(=O)N2CCC(N3CCCC3)CC2)c(Nc2ccccc2)c1)N1CCC(N2CCCC2)CC1
76.9%: [1]
38.5%: 30 µM, brain region: Pretectum
7.69%: 1 µM, brain region: Pretectum | 10 µM, brain region: DC 4,5,6 | 30 µM, brain region: DC 4,5,6
100%: [3]
50%: [2]
84.6%: [4]
10%: 3 µM, brain region: Pretectum
0%: 1 µM, brain region: DC1 | 1 µM, brain region: DC2 | 1 µM, brain region: DC3 | 1 µM, brain region: DC 4,5,6 | 1 µM, brain region: LC | 1 µM, brain region: MO | 3 µM, brain region: DC1 | 3 µM, brain region: DC2 | 3 µM, brain region: DC3 | 3 µM, brain region: DC 4,5,6 | 3 µM, brain region: LC | 3 µM, brain region: MO | 10 µM, brain region: DC1 | 10 µM, brain region: DC2 | 10 µM, brain region: DC3 | 10 µM, brain region: LC | 10 µM, brain region: MO | 10 µM, brain region: Pretectum | 30 µM, brain region: DC1 | 30 µM, brain region: DC2 | 30 µM, brain region: DC3 | 30 µM, brain region: LC | 30 µM, brain region: MO

O=C(/C=C/N1C[C@H]2C[C@@H]1CN2c1ccccn1)c1ccccc1O
16.7%: [4]
0%: 1 µM, brain region: DC1 | 1 µM, brain region: DC2 | 1 µM, brain region: DC3 | 1 µM, brain region: DC 4,5,6 | 1 µM, brain region: LC | 1 µM, brain region: MO | 1 µM, brain region: Pretectum | [1] | 3 µM, brain region: DC1 | 3 µM, brain region: DC2 | 3 µM, brain region: DC3 | 3 µM, brain region: DC 4,5,6 | 3 µM, brain region: LC | 3 µM, brain region: MO | 3 µM, brain region: Pretectum | [2] | 10 µM, brain region: DC1 | 10 µM, brain region: DC2 | 10 µM, brain region: DC3 | 10 µM, brain region: LC | 10 µM, brain region: MO | 10 µM, brain region: Pretectum | [3] | 30 µM, brain region: DC1 | 30 µM, brain region: DC2 | 30 µM, brain region: DC3 | 30 µM, brain region: DC 4,5,6 | 30 µM, brain region: LC | 30 µM, brain region: MO
33.3%: 30 µM, brain region: Pretectum
11.1%: 10 µM, brain region: DC 4,5,6

O=C(O)c1ccc(-n2nc(-c3ccccc3O)nc2-c2ccccc2O)cc1 [Deferasirox]
0%: [1] | [2] | 10 µM, brain region: DC1 | 10 µM, brain region: DC2 | 10 µM, brain region: DC3 | 10 µM, brain region: DC 4,5,6 | 10 µM, brain region: LC | 10 µM, brain region: MO | 10 µM, brain region: Pretectum | [3] | 30 µM, brain region: DC1 | 30 µM, brain region: DC2 | 30 µM, brain region: DC3 | 30 µM, brain region: DC 4,5,6 | 30 µM, brain region: LC | 30 µM, brain region: MO | 30 µM, brain region: Pretectum | [4]

CCCc1cc(C)[nH]c(=O)c1CNC(=O)c1cc(-c2ccnc(N3CCN(C)CC3)c2)cc2c1cnn2C(C)C
0%: 1 µM, brain region: DC1 | 1 µM, brain region: DC2 | 1 µM, brain region: DC3 | 1 µM, brain region: DC 4,5,6 | 1 µM, brain region: LC | 1 µM, brain region: MO | 1 µM, brain region: Pretectum | [1] | 3 µM, brain region: DC1 | 3 µM, brain region: DC2 | 3 µM, brain region: DC3 | 3 µM, brain region: DC 4,5,6 | 3 µM, brain region: LC | 3 µM, brain region: MO | 3 µM, brain region: Pretectum | [2] | 10 µM, brain region: DC1 | 10 µM, brain region: DC2 | 10 µM, brain region: DC3 | 10 µM, brain region: DC 4,5,6 | 10 µM, brain region: LC | 10 µM, brain region: MO | 10 µM, brain region: Pretectum | [3] | 30 µM, brain region: DC1 | 30 µM, brain region: DC2 | 30 µM, brain region: DC3 | 30 µM, brain region: DC 4,5,6 | 30 µM, brain region: LC | 30 µM, brain region: MO | 30 µM, brain region: Pretectum | [4]

Cc1cc(=O)n(C)c2cc(N3C(=O)CC[C@H](NS(=O)(=O)CC(C)C)[C@H]3c3ccc(Cl)cc3)ccc12
0%: 1 µM, brain region: DC1 | 1 µM, brain region: DC2 | 1 µM, brain region: DC3 | 1 µM, brain region: DC 4,5,6 | 1 µM, brain region: LC | 1 µM, brain region: MO | 1 µM, brain region: Pretectum | [1] | 3 µM, brain region: DC1 | 3 µM, brain region: DC2 | 3 µM, brain region: DC3 | 3 µM, brain region: DC 4,5,6 | 3 µM, brain region: LC | 3 µM, brain region: MO | 3 µM, brain region: Pretectum | [2] | 10 µM, brain region: DC1 | 10 µM, brain region: DC2 | 10 µM, brain region: DC3 | 10 µM, brain region: DC 4,5,6 | 10 µM, brain region: LC | 10 µM, brain region: MO | 10 µM, brain region: Pretectum | [3] | 30 µM, brain region: DC1 | 30 µM, brain region: DC2 | 30 µM, brain region: DC3 | 30 µM, brain region: DC 4,5,6 | 30 µM, brain region: LC | 30 µM, brain region: MO | 30 µM, brain region: Pretectum | [4]

COc1cc(/C=C/C(=O)CC(=O)/C=C/c2ccc(O)c(OC)c2)ccc1O [Curcumin]
16.7%: 10 µM, brain region: DC 4,5,6 | 10 µM, brain region: LC | 30 µM, brain region: DC 4,5,6 | [4]
7.69%: 1 µM, brain region: DC 4,5,6
0%: 1 µM, brain region: DC1 | 1 µM, brain region: DC2 | 1 µM, brain region: DC3 | 1 µM, brain region: LC | 1 µM, brain region: MO | 1 µM, brain region: Pretectum | [1] | 3 µM, brain region: DC1 | 3 µM, brain region: DC2 | 3 µM, brain region: DC3 | 3 µM, brain region: DC 4,5,6 | 3 µM, brain region: LC | 3 µM, brain region: MO | 3 µM, brain region: Pretectum | [2] | 10 µM, brain region: DC1 | 10 µM, brain region: DC2 | 10 µM, brain region: DC3 | 10 µM, brain region: MO | 10 µM, brain region: Pretectum | [3] | 30 µM, brain region: DC1 | 30 µM, brain region: DC2 | 30 µM, brain region: DC3 | 30 µM, brain region: LC | 30 µM, brain region: MO | 30 µM, brain region: Pretectum

COc1cc(C#N)ccc1S(=O)(=O)Nc1ccc2c(c1)cc(C)c(=O)n2C
0%: 1 µM, brain region: DC1 | 1 µM, brain region: DC2 | 1 µM, brain region: DC3 | 1 µM, brain region: DC 4,5,6 | 1 µM, brain region: LC | 1 µM, brain region: MO | 1 µM, brain region: Pretectum | [1] | 3 µM, brain region: DC1 | 3 µM, brain region: DC2 | 3 µM, brain region: DC3 | 3 µM, brain region: DC 4,5,6 | 3 µM, brain region: LC | 3 µM, brain region: MO | 3 µM, brain region: Pretectum | [2] | 10 µM, brain region: DC1 | 10 µM, brain region: DC2 | 10 µM, brain region: DC3 | 10 µM, brain region: DC 4,5,6 | 10 µM, brain region: LC | 10 µM, brain region: MO | 10 µM, brain region: Pretectum | [3] | 30 µM, brain region: DC1 | 30 µM, brain region: DC2 | 30 µM, brain region: DC3 | 30 µM, brain region: DC 4,5,6 | 30 µM, brain region: LC | 30 µM, brain region: MO | 30 µM, brain region: Pretectum | [4]

CC(C)N(CCCNC(=O)Nc1ccc(C(C)(C)C)cc1)C[C@H]1O[C@@H](n2cc(Br)c3c(N)ncnc32)[C@H](O)[C@@H]1O
9.09%: 10 µM, brain region: DC 4,5,6 | 10 µM, brain region: Pretectum | [3] | 30 µM, brain region: DC 4,5,6
0%: 1 µM, brain region: DC1 | 1 µM, brain region: DC2 | 1 µM, brain region: DC3 | 1 µM, brain region: DC 4,5,6 | 1 µM, brain region: LC | 1 µM, brain region: MO | 1 µM, brain region: Pretectum | [1] | 3 µM, brain region: DC1 | 3 µM, brain region: DC2 | 3 µM, brain region: DC3 | 3 µM, brain region: DC 4,5,6 | 3 µM, brain region: LC | 3 µM, brain region: MO | 3 µM, brain region: Pretectum | [2] | 10 µM, brain region: DC1 | 10 µM, brain region: DC2 | 10 µM, brain region: DC3 | 10 µM, brain region: LC | 10 µM, brain region: MO | 30 µM, brain region: DC1 | 30 µM, brain region: DC2 | 30 µM, brain region: DC3 | 30 µM, brain region: LC | 30 µM, brain region: MO | 30 µM, brain region: Pretectum | [4]

O=C([C@@H](Cc1cccc(C(F)(F)F)c1)NS(=O)(=O)c1cc(F)c2c(c1)CCNC2)N1CCCC1
0%: 1 µM, brain region: DC1 | 1 µM, brain region: DC2 | 1 µM, brain region: DC3 | 1 µM, brain region: DC 4,5,6 | 1 µM, brain region: LC | 1 µM, brain region: MO | 1 µM, brain region: Pretectum | [1] | 3 µM, brain region: DC1 | 3 µM, brain region: DC2 | 3 µM, brain region: DC3 | 3 µM, brain region: DC 4,5,6 | 3 µM, brain region: LC | 3 µM, brain region: MO | 3 µM, brain region: Pretectum | [2] | 10 µM, brain region: DC1 | 10 µM, brain region: DC2 | 10 µM, brain region: DC3 | 10 µM, brain region: DC 4,5,6 | 10 µM, brain region: LC | 10 µM, brain region: MO | 10 µM, brain region: Pretectum | [3] | 30 µM, brain region: DC1 | 30 µM, brain region: DC2 | 30 µM, brain region: DC3 | 30 µM, brain region: DC 4,5,6 | 30 µM, brain region: LC | 30 µM, brain region: MO | 30 µM, brain region: Pretectum | [4]
